Reference: patent US10934439B2, “Additives for coating compositions and related methods” (Massachusetts Institute of Technology, priority 2017, dated 2021)

Columns and labels:
[1] = Potentiodynamic polarization (Tafel tests) of galvanized steel in 3.5% NaCl with additives; conditions: 25° C
Description: The electrochemical open-to-air cell (PTC1™ Paint Test Cell, Gamry Instruments, Warminster, Pa.) was utilized for the potentiodynamic polarization (Tafel tests) and electrochemical impedance spectroscopy experiments. The electrochemical cell was composed of working electrode made of galvanized steel (zinc-galvanized sheets of type B carbon steel, ASTM A653, total thickness 0.305 mm, working area 2.2 cm^2 or 15.2 cm^2, McMaster Carr Supply Co., Robbinsvill, N.J.), reference Ag/AgCl electrode, and Pt wire auxiliary electrode (BASK) Corp., West Lafayette, Ind.). Prior to the immersion in the electrolyte (3.5% NaCl, pH adjusted to 5.25-5.3, 40 mL), the working electrodes were washed by acetone, ethanol, dried by nitrogen flow and polished with P1200 grit.^24 The working electrode was immersed into electrolyte containing the tested compound at a given concentration with desired pH at 25° C. for 60 min prior to each measurement. […] The carbon steel used herein was coated with the average minimum coating thickness per ASTM A653 being 2.0 mils (0.0508 mm) per surface. Tafel tests (ASTM GS) were conducted using a Parstat PMC-2000 multichannel potentiostat equipped with Versa Studio 2.50.3 software (Princeton Applied Research, Oak Ridge, Tenn.). Tafel tests were modeled with a ZSIMPWIN™ software for complex nonlinear least square analyses fitting the circuit models of the electrode interface to the Nyquist amplitude of 10 mV at the open circuit potential in the frequency range of 100 kHz to 0.2 Hz. Parameters for Tafel tests were as follows: initial potential, −1.25 V (vs reference); final potential, −0.45 V; scan properties: step height, 0.5 mV, step time, 2 s. In a series of measurements with the corrosion inhibiting additives, a range of the additive concentrations was studied and the scan range was set from 150 mV below the open circuit voltage (OCV) to 200 mV more positive than the OCV, with three measurements for each condition. The range in these measurements was limited in order to minimize the cathodic polarization causing local pH changes.
In the vicinity of Ecorr both currents are present in the specimen, but experimentally it is possible to measure only the net current. The net current has a single measurable polarity, either positive or negative. At Ecorr the net measured current is exactly zero. The corrosion current (icorr) is expressed as (for definitions, see FIG. 13):
[formula] where E.W. is the equivalent weight of the corroding species, g. In this case, the corroding species is Zn, so E.W.=32.7 g. Icorr, is the corrosion current density in μA/cm^2, and d is the density of the corroding species. Density of zinc is 7.140 g/cm^3.
From the icorr values, inhibitor efficiencies (IE, %) were calculated as (equation (1)): […]

[2] = Gel time of epoxy-amine curing by oscillatory shear rheometry; conditions: 5 wt % loading; 60-100° C; without additives 39.2 kJ/mol
[3] = DSC of benzoxazine resin curing polymerization; conditions: for exotherm peak maxima: 10 mol % additive, 10° C/min (FIG. 24), without additives 220° C; for apparent activation energy of benzoxazine polymerization: 10 mol % loading, monomer alone 88.6 kJ/mol

Molecule | −Ecorr (corrosion potential) ([1]; pH 5.3, [Mg2+] 71.8, [Ac−] 144, [TDPA] 0 meq/L) [V] | −Ecorr (corrosion potential) ([1]; pH 5.6, additive 10 mg/mL) [V] | −Ecorr (corrosion potential) ([1]; pH 2.1, [TDPA] 94.8 meq/L) [V] | −Ecorr (corrosion potential) ([1]; pH 5.3, [TDPA] 47.4 meq/L) [V] | −Ecorr (corrosion potential) ([1]; pH 5.3, [TDPA] 94.8 meq/L) [V] | −Ecorr (corrosion potential) ([1]; pH 5.3, [Mg2+] 9.93, [Ac−] 9.93, [TDPA] 15.9 meq/L) [V] | −Ecorr (corrosion potential) ([1]; pH 5.3, [Mg2+] 41.9, [Ac−] 41.9, [TDPA] 67.1 meq/L) [V] | −Ecorr (corrosion potential) ([1]; pH 5.3, [Mg2+] 62.9, [Ac−] 62.9, [TDPA] 101 meq/L) [V] | apparent activation energy of curing [2] [kcal/mol] | exotherm peak maxima [3] [°C] | apparent activation energy of benzoxazine polymerization [3] [kcal/mol] | lowering of the onset of curing reactions ([3]; MgAcTDPA 12 wt %, 15° C/min (FIG. 23))
CC(=O)[O-].CC(=O)[O-].O.O.O.O.[Mg+2] [MgAc2, magnesium acetate tetrahydrate, reference compound] | 0.903 | 1.059 |  |  |  |  |  |  |  |  |  | 
O=C(O)CCSCCC(=O)O [TDPA, 3,3′-thiodipropionic acid, reference compound] |  | 1.076 | 1.042 | 1.046 | 1.049 |  |  |  |  |  |  | 
magnesium acetate thiodipropionate [MgAcTDPA] |  | 1.067 |  |  |  | 1.079 | 1.025 | 1.018 | 7 | 204 | 16.5 | ca. 46 °C
magnesium thiodipropionate [MgTDPA1:1] |  |  |  |  |  |  |  |  | 6.64 | 178 | 15.2 | 
